# Laboratory results as given in the supplement of paper PMC8773631.
# ± gives the uncertainty stated by the source. The entries are a selection whose mix differs from that of the whole data set.
# Tested on: NCC-MFS5-C1
# Experiment: cell viability relative to DMSO control; higher = less growth inhibition
# Conditions: 10 µM; treatment time: 3 days
# Protocol: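 NCC-MFS5-C1 myxofibrosarcoma cells (1x10^4 per well, 384-well) were treated on day 2 with 10 µM of each drug. On day 5, viability was read by CCK-8 absorbance at 450 nm and normalised to the DMSO control (%), n = 2.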
row,SMILES,cell viability
1,COC(=O)[C@H](CCCN=C(N)N)NS(=O)(=O)c1ccc(C)cc1,101 ± 2.2%
